Where no end group is shown, it is not given here.
Key:
[1] = general procedure: Fmoc solid-phase peptide synthesis; 2-chlorotrityl resin; DCC/HOBt; HBTU; conditions: whole synthesis, scale 150 mg of 0.25 mmol resin batch
[2] = general procedure: Fmoc solid-phase peptide synthesis; Wang resin; DCC/HOBt; HBTU; conditions: whole synthesis, scale 0.25 mmol
[3] = general procedure: Fmoc solid-phase peptide synthesis; 2-chlorotrityl resin (Clt resin, 1.33 mmol/g); Wang resin; DCC/HOBt; HBTU; conditions: whole synthesis, scale of the general procedure 0.25 mmol

| Substance | isolated mass [1] | isolated mass [2] | final HPLC purity [3] |
| --- | --- | --- | --- |
| Fmoc-Trp-Tyr-Lys-His-Val-Ala-Ser-Pro-Arg-Tyr-His-Thr-Val-Gly-Arg-Ala-Ala-Gly-Leu-Leu-Met-Gly-Leu | 9.7 mg | – | – |
| WFKHVASPRYHTVGRAAGLL | – | 35 mg | 98.8% |
